{
  "source": "paper doi:10.1101/2021.01.13.426390",
  "key": {"[1]": {"biological_target": "AGR2 (human (endogenous in T47D, BT474, MDA-MB-468)) (UniProt O95994)", "assay": "co-IP"}, "[2]": {"biological_target": "T1, wild type ERp44 (CXXS), enforced expression (UniProt Q9BS26)", "T1 sequence": "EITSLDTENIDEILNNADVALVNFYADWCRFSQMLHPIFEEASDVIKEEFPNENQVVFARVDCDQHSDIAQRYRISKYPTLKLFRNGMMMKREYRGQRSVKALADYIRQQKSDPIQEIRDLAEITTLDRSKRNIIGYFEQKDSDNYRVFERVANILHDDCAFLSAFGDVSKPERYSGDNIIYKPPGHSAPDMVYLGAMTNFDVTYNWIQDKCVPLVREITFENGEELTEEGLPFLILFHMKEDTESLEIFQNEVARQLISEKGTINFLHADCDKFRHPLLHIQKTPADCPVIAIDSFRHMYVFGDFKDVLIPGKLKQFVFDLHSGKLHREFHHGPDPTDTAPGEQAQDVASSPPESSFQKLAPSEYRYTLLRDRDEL", "assay": "co-IP"}, "[3]": {"biological_target": "T2, ERp44 (human (endogenous in T47D, BT474, MDA-MB-468)) (UniProt Q9BS26)", "T2 sequence": "T1 sequence", "assay": "co-IP"}, "[4]": {"biological_target": "T3, C58S ERp44 active site mutant (SXXS) (UniProt Q9BS26)", "T3 sequence": "T1 sequence with C29S", "assay": "non-reducing SDS-PAGE and immunoblot of disulfide-bonded complexes"}, "S61C ERp44 mutant (CXXC)": {"biological_target": "T4, S61C ERp44 mutant (CXXC) (UniProt Q9BS26)", "T4 sequence": "T1 sequence with S32C", "assay": "non-reducing SDS-PAGE and immunoblot of disulfide-bonded complexes"}, "[5]": {"biological_target": "T1, wild type ERp44 (CXXS), enforced expression", "assay": "non-reducing SDS-PAGE and immunoblot of disulfide-bonded complexes"}, "[6]": {"biological_target": "C81S AGR2 active site mutant, enforced expression (UniProt O95994)", "assay": "non-reducing SDS-PAGE and immunoblot of disulfide-bonded complexes"}},
  "note": "Where a chain is given by its changes, count along the chain named. Results are given in words; binding and its absence hold for the method and conditions named. For part of these data: In cells and extracts the contact can be indirect. Some binding calls cover weakened binding; strength is not graded here.",
  "data": [
    {"substance": "PDIA1 (from UniProt P07237 18-508)", "values": [
      {"measurement": "binding", "setting": "[1]", "value": "binds"},
      {"measurement": "binding", "setting": "[2]", "value": "binds"},
      {"measurement": "binding", "setting": "[3]", "value": "binds"}
    ]},
    {"substance": "ER Aminopeptidase 1 (from UniProt Q9NZ08 1-941) (enzyme)", "values": [
      {"measurement": "binding", "setting": "[4]", "value": "no binding"},
      {"measurement": "binding", "setting": "S61C ERp44 mutant (CXXC)", "value": "binds"},
      {"measurement": "binding", "setting": "[5]", "value": "binds"}
    ]},
    {"substance": "doxycycline-inducible DR4 (from UniProt O00220 24-468) (receptor)", "values": [
      {"measurement": "binding", "setting": "[3]", "value": "binds"}
    ]},
    {"substance": "Death Receptor 4 (from UniProt O00220 24-468)", "values": [
      {"measurement": "binding", "setting": "[3]", "value": "binds"}
    ]},
    {"substance": "C81S AGR2 active site mutant, enforced expression (from UniProt O95994 21-175)", "values": [
      {"measurement": "binding", "setting": "[6]", "value": "no binding"}
    ]}
  ]
}
